Results on five molecules are retold here after US11732143B2, “Identification and characterization of novel corrosion inhibitor molecules” (ECOLAB USA INC., priority 2015, dated 2023).

The nature of data set [1]: Bubble cell test, corrosion rate by Linear Polarization Resistance (LPR) in produced water brine treated with corrosion inhibitor and biocide. Conditions: for Corrosion rate in MPY, Biocide + 2 hrs: 2 hrs after biocide addition; for Corrosion rate in MPY, Biocide + 8 hrs: 8 hrs after biocide addition; for Corrosion rate in MPY, Biocide + 17 hrs: 17 hrs after biocide addition; for Corrosion rate in MPY, Biocide: at biocide addition; for Corrosion rate in MPY, CI: after 120 ppm corrosion inhibitor, before biocide addition.

Data set [2] is described as follows: Bubble cell test, LPR corrosion rate, CO2 only tests (no biocide added). Conditions: for corrosion protection against generalized corrosion produced by CO2 compared to untreated controls: CO2, no biocide; for Corrosion rate in MPY, Biocide + 2 hrs / Corrosion rate in MPY, Biocide + 8 hrs / Corrosion rate in MPY, Biocide + 17 hrs / Corrosion rate in MPY, CI: CO2 only; for Corrosion rate in MPY, Biocide + 2 hrs / Corrosion rate in MPY, Biocide + 8 hrs / Corrosion rate in MPY, Biocide + 17 hrs: no biocide added, 120 ppm corrosion inhibitor; for Corrosion rate in MPY, Biocide + 2 hrs: + 2 hrs time point; for Corrosion rate in MPY, Biocide + 8 hrs: + 8 hrs time point; for Corrosion rate in MPY, Biocide + 17 hrs: + 17 hrs time point; for Corrosion rate in MPY, CI: no biocide, after 120 ppm corrosion inhibitor.

The mark [3] stands for this setting: 120 ppm corrosion inhibitor + 100 ppm Biocide 1.
Setting [4] is: 120 ppm corrosion inhibitor + 100 ppm Biocide 2.
Where [5] appears, read: 120 ppm corrosion inhibitor + 100 ppm Biocide 3.
The mark [6] stands for this setting: 120 ppm corrosion inhibitor + 100 ppm Biocide 4.

In the case of “2-hydroxylethyl-N-methylbutane-1-sulphonamide”, the “Corrosion rate in MPY, Biocide + 2 hrs” value in data set [1] (setting [3]) was found to be 23.91 MPY; in data set [1] (setting [4]), 0.7841 MPY; in data set [1] (setting [5]), 3.4910 MPY; in data set [1] (setting [6]), 2.6270 MPY; in data set [2], 102.5000 MPY. Also, the “Corrosion rate in MPY, Biocide + 8 hrs” value in data set [1] (setting [3]) came out at 5.312 MPY; in data set [1] (setting [4]) it was 0.6327 MPY; in data set [1] (setting [5]), 5.1620 MPY; in data set [1] (setting [6]), 2.2090 MPY; in data set [2], 47.4900 MPY. For the same molecule, the “Corrosion rate in MPY, Biocide + 17 hrs” value in data set [1] (setting [3]) stood at 3.712 MPY; in data set [1] (setting [4]), 0.3224 MPY; in data set [1] (setting [5]), 8.8860 MPY; in data set [1] (setting [6]), 2.0730 MPY; in data set [2] it was 37.5800 MPY. Besides, the “Corrosion rate in MPY, Biocide” value came out at 122.9 MPY in data set [1] (setting [3]), 2.01 MPY in data set [1] (setting [4]), 2.7740 MPY in data set [1] (setting [5]) and 2.8890 MPY in data set [1] (setting [6]). Further, the “Corrosion rate in MPY, CI” value in data set [1] (Biocide 1 test) is given as 5.101 MPY; in data set [1] (Biocide 2 test), 0.6859 MPY; in data set [1] (Biocide 3 test) it was 3.8820 MPY; in data set [1] (Biocide 4 test), 3.1740 MPY; in data set [2], 111.6000 MPY. For the same molecule, in data set [2], the “corrosion protection against generalized corrosion produced by CO2 compared to untreated controls” value was “capable of reducing the corrosion rates”.
On to `OCCS` [CONTROL 3, Mercaptoethanol, reference compound], for which the “Corrosion rate in MPY, Biocide + 2 hrs” value in data set [1] (setting [3]) came out at 27.7 MPY; in data set [1] (setting [4]) it was 22.43 MPY; in data set [1] (setting [5]), 3.57 MPY; in data set [1] (setting [6]) it was 10.20 MPY; in data set [2], 4.0350 MPY. For the same molecule, the “Corrosion rate in MPY, Biocide + 8 hrs” value was 20.5 MPY in data set [1] (setting [3]); 17.78 MPY in data set [1] (setting [4]); 1.36 MPY in data set [1] (setting [5]); 8.91 MPY in data set [1] (setting [6]); 3.0320 MPY in data set [2]. The “Corrosion rate in MPY, Biocide + 17 hrs” value was found to be 18.1 MPY in data set [1] (setting [3]); 13.44 MPY in data set [1] (setting [4]); 1.25 MPY in data set [1] (setting [5]); 7.39 MPY in data set [1] (setting [6]); 2.7150 MPY in data set [2]. Moreover, the “Corrosion rate in MPY, Biocide” value in data set [1] (setting [3]) is 28.1 MPY; in data set [1] (setting [4]), 26.89 MPY; in data set [1] (setting [5]) it was 9.62 MPY; in data set [1] (setting [6]) it was 10.12 MPY. Besides, the “Corrosion rate in MPY, CI” value in data set [1] (Biocide 1 test) amounted to 6.1 MPY; in data set [1] (Biocide 2 test), 15.96 MPY; in data set [1] (Biocide 3 test), 10.74 MPY; in data set [1] (Biocide 4 test), 10.57 MPY; in data set [2] it was 9.1810 MPY.
For the molecule “Benzyl, didethyl-dodecyl-ammonium chloride [CONTROL 1, reference compound]”, the “Corrosion rate in MPY, Biocide + 2 hrs” value was 47.6 MPY in data set [1] (setting [3]); 0.6369 MPY in data set [1] (setting [4]); 0.17 MPY in data set [1] (setting [5]); 0.47 MPY in data set [1] (setting [6]); 76.5700 MPY in data set [2]. Moreover, the “Corrosion rate in MPY, Biocide + 8 hrs” value in data set [1] (setting [3]) is 22.2 MPY; in data set [1] (setting [4]) it was 0.5407 MPY; in data set [1] (setting [5]), 0.16 MPY; in data set [1] (setting [6]) it was 0.38 MPY; in data set [2], 112.9000 MPY. Besides, the “Corrosion rate in MPY, Biocide + 17 hrs” value is 14.82 MPY in data set [1] (setting [3]); 0.4188 MPY in data set [1] (setting [4]); 0.16 MPY in data set [1] (setting [5]); 0.44 MPY in data set [1] (setting [6]); 125.2000 MPY in data set [2]. Further, the “Corrosion rate in MPY, Biocide” value in data set [1] (setting [3]) amounted to 100 MPY; in data set [1] (setting [4]) it was 0.6607 MPY; in data set [1] (setting [5]), 0.25 MPY; in data set [1] (setting [6]), 0.60 MPY. For the same molecule, the “Corrosion rate in MPY, CI” value in data set [1] (Biocide 1 test) turned out to be 0.6718 MPY; in data set [1] (Biocide 2 test), 0.6933 MPY; in data set [1] (Biocide 3 test), 0.64 MPY; in data set [1] (Biocide 4 test), 0.64 MPY; in data set [2], 60.3400 MPY.
Turning to Cocoamphodiproprionate sodium salt, the “Corrosion rate in MPY, Biocide + 2 hrs” value in data set [1] (setting [3]) turned out to be 15.8 MPY; in data set [1] (setting [4]), 1.436 MPY; in data set [1] (setting [5]), 3.2560 MPY; in data set [1] (setting [6]) it was 3.6720 MPY; in data set [2] it was 23.7300 MPY. The “Corrosion rate in MPY, Biocide + 8 hrs” value worked out at 1.415 MPY in data set [1] (setting [3]); 0.6276 MPY in data set [1] (setting [4]); 7.3900 MPY in data set [1] (setting [5]); 3.2270 MPY in data set [1] (setting [6]); 6.9350 MPY in data set [2]. Moreover, the “Corrosion rate in MPY, Biocide + 17 hrs” value in data set [1] (setting [3]) came out at 0.81 MPY; in data set [1] (setting [4]), 0.4382 MPY; in data set [1] (setting [5]) it was 19.2800 MPY; in data set [1] (setting [6]) it was 2.8500 MPY; in data set [2], 5.9230 MPY. For the same molecule, the “Corrosion rate in MPY, Biocide” value stood at 48.9 MPY in data set [1] (setting [3]), 3.966 MPY in data set [1] (setting [4]), 5.9450 MPY in data set [1] (setting [5]) and 3.9920 MPY in data set [1] (setting [6]). In addition, the “Corrosion rate in MPY, CI” value in data set [1] (Biocide 1 test) is on record as 4.888 MPY; in data set [1] (Biocide 2 test), 0.5222 MPY; in data set [1] (Biocide 3 test), 6.9830 MPY; in data set [1] (Biocide 4 test), 4.4020 MPY; in data set [2] it was 98.5400 MPY. For the same molecule, the “corrosion rate within the acceptable range of corrosion protection” value in data set [1] (biocide 2 treated carbon steel coupons, 120 ppm corrosion inhibitor) is recorded as less than 4 MPY. The “corrosion protection against generalized corrosion produced by CO2 compared to untreated controls” value in data set [2] is reported as “significantly reduced”.
For Dodecenyl succinic anhydride, the “Corrosion rate in MPY, Biocide + 17 hrs” value in data set [1] (setting [3]) amounted to 3.864 MPY; in data set [1] (setting [4]) it was 0.5356 MPY; in data set [1] (setting [5]), 1.8120 MPY; in data set [1] (setting [6]), 3.1680 MPY; in data set [2], 135.9000 MPY. Besides, the “Corrosion rate in MPY, Biocide” value in data set [1] (setting [5]) is on record as 5.5460 MPY. In addition, the “corrosion protection against generalized corrosion produced by CO2 compared to untreated controls” value in data set [2] is “does not confer additional protection”.
